The entries are a selection whose mix differs from that of the whole data set. For part of these data: At the low end of the ranking, values are background and their order means little. The list shows a part of the results. For part of these data: The exact form of the protein is not confirmed.
How the values were obtained:
Assay in all cases: DAPPL (digital affinity profiling via proximity ligation, sequencing)
Conditions in all cases: 10 mM Tris-HCl pH 7.5, 50 mM NaCl, 1 mM DTT, 4% glycerol, room temperature, 30 min; GST-TFs on glutathione beads, 16-mer random dsDNA library, 0.1% …; high values mean tight binding; double strand, one strand shown; scale: fold enrichment (6-mer frequency, TF over GST control)
[1] = target: T1, ERG (UniProt P11308)
T1 sequence: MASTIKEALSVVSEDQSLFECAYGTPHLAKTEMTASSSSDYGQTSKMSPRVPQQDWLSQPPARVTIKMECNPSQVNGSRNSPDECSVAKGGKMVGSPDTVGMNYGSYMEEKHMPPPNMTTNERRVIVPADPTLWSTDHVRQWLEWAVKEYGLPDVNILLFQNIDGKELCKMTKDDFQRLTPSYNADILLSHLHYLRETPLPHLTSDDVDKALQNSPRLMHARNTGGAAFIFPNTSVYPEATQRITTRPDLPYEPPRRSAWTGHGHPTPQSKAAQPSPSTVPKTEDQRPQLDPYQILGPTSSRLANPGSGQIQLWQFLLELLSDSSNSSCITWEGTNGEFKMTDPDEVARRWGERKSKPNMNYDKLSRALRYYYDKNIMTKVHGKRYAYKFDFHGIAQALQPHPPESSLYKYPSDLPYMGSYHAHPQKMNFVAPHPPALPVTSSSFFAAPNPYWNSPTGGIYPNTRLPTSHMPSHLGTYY

Chains of the proteins cited; added tags and fusions are not shown. Lines headed by an entry give the natural chain unless they say otherwise; changes in a name come on top.
UniProt P32519: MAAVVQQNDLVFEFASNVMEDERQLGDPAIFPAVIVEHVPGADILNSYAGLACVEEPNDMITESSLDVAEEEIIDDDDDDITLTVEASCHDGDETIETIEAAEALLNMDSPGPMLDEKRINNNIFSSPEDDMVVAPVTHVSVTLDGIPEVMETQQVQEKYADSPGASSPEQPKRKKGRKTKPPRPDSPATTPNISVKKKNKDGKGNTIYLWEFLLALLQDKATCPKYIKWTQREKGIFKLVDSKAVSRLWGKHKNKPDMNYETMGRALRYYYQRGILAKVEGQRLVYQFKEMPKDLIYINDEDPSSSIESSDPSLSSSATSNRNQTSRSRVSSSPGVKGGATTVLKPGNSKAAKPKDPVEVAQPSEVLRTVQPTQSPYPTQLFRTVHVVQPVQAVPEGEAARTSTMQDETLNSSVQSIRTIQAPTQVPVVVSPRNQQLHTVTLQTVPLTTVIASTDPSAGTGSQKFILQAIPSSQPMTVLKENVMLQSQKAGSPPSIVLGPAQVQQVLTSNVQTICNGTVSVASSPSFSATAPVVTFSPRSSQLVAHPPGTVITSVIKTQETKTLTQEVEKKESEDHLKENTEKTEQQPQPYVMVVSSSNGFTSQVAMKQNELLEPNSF
UniProt P50549: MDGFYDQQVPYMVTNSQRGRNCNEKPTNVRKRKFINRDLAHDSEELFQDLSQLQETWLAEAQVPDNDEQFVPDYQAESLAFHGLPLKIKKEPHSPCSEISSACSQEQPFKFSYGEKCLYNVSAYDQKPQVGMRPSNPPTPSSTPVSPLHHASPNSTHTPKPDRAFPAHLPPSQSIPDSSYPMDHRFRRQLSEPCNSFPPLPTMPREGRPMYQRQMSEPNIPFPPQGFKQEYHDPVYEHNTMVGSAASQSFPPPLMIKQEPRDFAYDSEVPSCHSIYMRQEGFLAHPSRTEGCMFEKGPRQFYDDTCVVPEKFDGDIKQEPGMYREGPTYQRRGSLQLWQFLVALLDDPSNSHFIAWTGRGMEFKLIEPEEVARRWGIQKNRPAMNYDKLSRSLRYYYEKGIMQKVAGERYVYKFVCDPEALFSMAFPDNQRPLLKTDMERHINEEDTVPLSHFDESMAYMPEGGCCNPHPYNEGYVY

[2] = target: ELF1 (UniProt P32519)
[3] = target: T2, ELK4 (UniProt P28324-2)
T2 sequence: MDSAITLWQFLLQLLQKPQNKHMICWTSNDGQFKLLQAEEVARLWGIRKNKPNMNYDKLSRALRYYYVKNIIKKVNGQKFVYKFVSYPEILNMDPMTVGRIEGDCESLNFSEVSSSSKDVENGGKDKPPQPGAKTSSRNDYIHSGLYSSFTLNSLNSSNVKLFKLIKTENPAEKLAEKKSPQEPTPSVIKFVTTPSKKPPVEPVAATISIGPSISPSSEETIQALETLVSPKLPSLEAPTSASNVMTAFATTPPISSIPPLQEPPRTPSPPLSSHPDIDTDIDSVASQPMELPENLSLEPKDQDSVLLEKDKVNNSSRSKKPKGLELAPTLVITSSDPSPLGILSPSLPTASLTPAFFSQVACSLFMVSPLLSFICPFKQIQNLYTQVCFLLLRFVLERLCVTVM

[4] = target: T3, ETV4 (UniProt P43268)
T3 sequence: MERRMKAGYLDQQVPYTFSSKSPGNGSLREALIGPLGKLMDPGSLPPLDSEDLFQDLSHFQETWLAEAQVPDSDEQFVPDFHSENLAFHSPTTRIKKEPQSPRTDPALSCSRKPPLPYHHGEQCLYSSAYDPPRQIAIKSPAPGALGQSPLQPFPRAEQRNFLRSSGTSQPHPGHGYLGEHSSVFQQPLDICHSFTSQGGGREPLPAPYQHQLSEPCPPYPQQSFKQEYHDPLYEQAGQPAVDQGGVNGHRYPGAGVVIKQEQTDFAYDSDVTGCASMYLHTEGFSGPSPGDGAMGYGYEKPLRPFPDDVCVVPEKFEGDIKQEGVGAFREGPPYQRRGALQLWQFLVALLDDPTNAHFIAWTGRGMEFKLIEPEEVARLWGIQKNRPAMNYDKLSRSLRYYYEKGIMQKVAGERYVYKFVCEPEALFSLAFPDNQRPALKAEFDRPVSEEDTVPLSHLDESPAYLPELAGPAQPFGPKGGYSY

[5] = target: ETV1 (UniProt P50549)
[6] = target: T4, ERF (UniProt P50548)
T4 sequence: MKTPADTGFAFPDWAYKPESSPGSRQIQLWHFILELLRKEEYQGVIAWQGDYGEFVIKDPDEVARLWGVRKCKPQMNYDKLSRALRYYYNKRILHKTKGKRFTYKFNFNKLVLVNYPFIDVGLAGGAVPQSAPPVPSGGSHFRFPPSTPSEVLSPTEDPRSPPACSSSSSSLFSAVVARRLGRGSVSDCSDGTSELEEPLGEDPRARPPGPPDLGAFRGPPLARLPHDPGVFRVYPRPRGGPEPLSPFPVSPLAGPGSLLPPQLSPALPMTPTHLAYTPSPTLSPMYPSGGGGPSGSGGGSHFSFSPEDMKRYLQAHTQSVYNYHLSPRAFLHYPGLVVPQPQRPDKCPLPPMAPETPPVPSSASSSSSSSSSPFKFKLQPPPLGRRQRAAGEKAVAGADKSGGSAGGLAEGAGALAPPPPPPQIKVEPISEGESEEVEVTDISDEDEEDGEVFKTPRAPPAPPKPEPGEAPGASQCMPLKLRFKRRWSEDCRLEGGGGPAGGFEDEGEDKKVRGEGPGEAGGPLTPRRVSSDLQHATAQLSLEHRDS

Sequence | binding signal [1] | binding signal [2] | binding signal [3] | binding signal [4] | binding signal [5] | binding signal [6]
CAAGGA | 0.775 | 0.8 | 0.695 | 0.709 | 0.781 | 0.763
GATAGG | 0.876 | 0.868 | 0.901 | 0.785 | 0.852 | 0.807
TGTGAG | 0.321 | 0.335 | 0.38 | 0.375 | 0.309 | 0.328
GGGGCG | 0.639 | 0.649 | 0.593 | 0.637 | 0.634 | 0.67
AGTTCG | 0.714 | 0.758 | 0.739 | 0.799 | 0.714 | 0.822
AGTCGG | 0.166 | 0.139 | 0.144 | 0.132 | 0.143 | 0.154
GGGATG | 0.875 | 0.866 | 0.938 | 0.956 | 0.92 | 0.983
AGCCGT | 0.467 | 0.48 | 0.443 | 0.5 | 0.469 | 0.485
CTGAGT | 0.612 | 0.61 | 0.632 | 0.615 | 0.625 | 0.582
GAGATC | 0.466 | 0.467 | 0.465 | 0.473 | 0.483 | 0.45
GACAGC | 0.778 | 0.832 | 0.752 | 0.79 | 0.775 | 0.864
ATGAGA | 0.846 | 0.799 | 0.953 | 0.776 | 0.824 | 0.922
GTACGG | 0.907 | 0.809 | 0.869 | 0.781 | 0.802 | 0.834
TTCGGA | 0.715 | 0.767 | 0.82 | 0.746 | 0.748 | 0.871
CGGGTC | 0.714 | 0.721 | 0.559 | 0.691 | 0.737 | 0.737
GTCGTA | 0.629 | 0.589 | 0.613 | 0.563 | 0.604 | 0.613
TCGTGG | 0.679 | 0.768 | 0.707 | 0.711 | 0.74 | 0.749
TGTCGA | 0.869 | 0.832 | 0.879 | 0.891 | 0.885 | 0.826
GGTAGT | 0.71 | 0.715 | 0.704 | 0.764 | 0.782 | 0.717
GACTGT | 0.436 | 0.461 | 0.484 | 0.454 | 0.433 | 0.417
GTCGTG | 0.413 | 0.407 | 0.359 | 0.378 | 0.392 | 0.412
AGTTAG | 0.776 | 0.848 | 0.768 | 0.764 | 0.788 | 0.804
CCCGTG | 0.577 | 0.508 | 0.672 | 0.574 | 0.572 | 0.617
CCGTGT | 0.491 | 0.479 | 0.586 | 0.516 | 0.513 | 0.479
GCACCG | 0.749 | 0.772 | 0.749 | 0.723 | 0.689 | 0.784
GGAGTG | 0.434 | 0.368 | 0.446 | 0.4 | 0.433 | 0.414
TGGGGC | 0.778 | 0.857 | 0.9 | 0.798 | 0.912 | 0.847
TGAGAT | 0.713 | 0.698 | 0.822 | 0.593 | 0.698 | 0.765
CAGGGA | 0.517 | 0.494 | 0.449 | 0.501 | 0.499 | 0.52
GCGGTT | 0.844 | 0.753 | 0.826 | 0.79 | 0.781 | 0.792

Some values from the entries so far:
binding signal [3], TGTGAG is entered as 0.38
binding signal [2], GCACCG is entered as 0.772
